Laboratory results published in paper PMC12432130.

Amino acid sequences for entries named in this document (tags omitted).
UniProt O75494: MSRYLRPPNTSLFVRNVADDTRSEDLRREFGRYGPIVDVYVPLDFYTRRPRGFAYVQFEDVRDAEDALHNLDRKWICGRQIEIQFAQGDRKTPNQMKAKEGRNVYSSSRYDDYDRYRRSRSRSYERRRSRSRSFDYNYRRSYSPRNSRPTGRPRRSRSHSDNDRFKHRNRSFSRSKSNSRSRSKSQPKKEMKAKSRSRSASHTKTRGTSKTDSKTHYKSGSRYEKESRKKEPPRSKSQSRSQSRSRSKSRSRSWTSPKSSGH

Target: T1, Flag-tagged TTK protein kinase (UniProt P33981)
T1 sequence: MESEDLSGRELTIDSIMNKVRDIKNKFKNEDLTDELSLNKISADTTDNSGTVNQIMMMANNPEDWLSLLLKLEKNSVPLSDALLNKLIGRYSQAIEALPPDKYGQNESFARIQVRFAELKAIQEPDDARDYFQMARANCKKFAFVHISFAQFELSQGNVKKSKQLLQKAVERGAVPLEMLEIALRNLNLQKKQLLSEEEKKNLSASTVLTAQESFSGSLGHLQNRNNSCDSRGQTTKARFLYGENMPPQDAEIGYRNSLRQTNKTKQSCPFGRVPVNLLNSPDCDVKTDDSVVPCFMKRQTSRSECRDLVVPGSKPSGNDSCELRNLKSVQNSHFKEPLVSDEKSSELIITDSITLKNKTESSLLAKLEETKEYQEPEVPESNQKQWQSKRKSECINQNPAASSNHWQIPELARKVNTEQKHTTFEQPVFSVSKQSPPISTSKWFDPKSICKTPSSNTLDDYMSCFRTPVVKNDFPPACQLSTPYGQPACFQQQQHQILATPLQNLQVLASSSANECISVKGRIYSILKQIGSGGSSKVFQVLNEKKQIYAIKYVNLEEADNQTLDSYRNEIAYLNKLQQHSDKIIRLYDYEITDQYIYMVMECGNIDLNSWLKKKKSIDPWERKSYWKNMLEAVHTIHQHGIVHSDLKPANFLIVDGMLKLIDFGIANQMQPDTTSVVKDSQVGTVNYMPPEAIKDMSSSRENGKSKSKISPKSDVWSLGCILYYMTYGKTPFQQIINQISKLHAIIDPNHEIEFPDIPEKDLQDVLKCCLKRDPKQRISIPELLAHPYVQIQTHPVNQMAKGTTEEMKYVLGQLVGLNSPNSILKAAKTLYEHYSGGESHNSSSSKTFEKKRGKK
Test: affinity purification with mass spectrometry; Flag-TTK expressed in RT-112 cells, immunoprecipitated with Flag antibody; co-immunoprecipitated proteins silver stained, bands excised and identified by MS

Molecule | binding
SRSF10 (from UniProt O75494 1-262) | binds
SRSF2 (protein, UniProt Q01130 1-221) MSYGRPPPDVEGMTSLKVDNLTYRTSPDTLRRVFEKYGRVGDVYIPRDRYTKESRGFAFVRFHDKRDAEDAMDAMDGAVLDGRELRVQMARYGRPPDSHHSRRGPPPRRYGGGGYGRRSRSPRRRRRSRSRSRSRSRSRSRSRYSRSKSRSRTRSRSRSTSKSRSARRSKSKSSSVSRSRSRSRSRSRSRSPPPVSKRESKSRSRSKSPPKSPEEEGAVSS | binds
SRSF3 (protein, UniProt P84103 1-164) MHRDSCPLDCKVYVGNLGNNGNKTELERAFGYYGPLRSVWVARNPPGFAFVEFEDPRDAADAVRELDGRTLCGCRVRVELSNGEKRSRNRGPPPSWGRRPRDDYRRRSPPPRRRSPRRRSFSRSRSRSLSRDRRRERSLSRERNHKPSRSFSRSRSRSRSNERK | binds
SRSF7 (protein, UniProt Q16629 1-238) MSRYGRYGGETKVYVGNLGTGAGKGELERAFSYYGPLRTVWIARNPPGFAFVEFEDPRDAEDAVRGLDGKVICGSRVRVELSTGMPRRSRFDRPPARRPFDPNDRCYECGEKGHYAYDCHRYSRRRRSRSRSRSHSRSRGRRYSRSRSRSRGRRSRSASPRRSRSISLRRSRSASLRRSRSGSIKGSRYFQSPSRSRSRSRSISRPRSSRSKSRSPSPKRSRSPSGSPRRSASPERMD | binds

No constants are given. Whether binding was seen depends on the method and setting. In cells and extracts the contact can be indirect. Here binding means that the protein was enriched with, or labelled near, the bait; the list need not be complete. Tags and fused reporters may be left off the sequences shown.
